In paper PMC7802242, “The nuclear lamina is a hub for the nuclear function of Jacob” (Molecular Brain, 2021):
Changes are numbered by the printed parent chain. These are yes or no findings as the source states them, for the method shown. For some of these results: In cells and extracts the contact can be indirect. Some binding calls cover weakened binding; strength is not graded here. For some of these results: Tags and fused reporters may be left off the sequences shown.

The chains behind the UniProt entries cited, without tags or fusion partners.
UniProt O14980: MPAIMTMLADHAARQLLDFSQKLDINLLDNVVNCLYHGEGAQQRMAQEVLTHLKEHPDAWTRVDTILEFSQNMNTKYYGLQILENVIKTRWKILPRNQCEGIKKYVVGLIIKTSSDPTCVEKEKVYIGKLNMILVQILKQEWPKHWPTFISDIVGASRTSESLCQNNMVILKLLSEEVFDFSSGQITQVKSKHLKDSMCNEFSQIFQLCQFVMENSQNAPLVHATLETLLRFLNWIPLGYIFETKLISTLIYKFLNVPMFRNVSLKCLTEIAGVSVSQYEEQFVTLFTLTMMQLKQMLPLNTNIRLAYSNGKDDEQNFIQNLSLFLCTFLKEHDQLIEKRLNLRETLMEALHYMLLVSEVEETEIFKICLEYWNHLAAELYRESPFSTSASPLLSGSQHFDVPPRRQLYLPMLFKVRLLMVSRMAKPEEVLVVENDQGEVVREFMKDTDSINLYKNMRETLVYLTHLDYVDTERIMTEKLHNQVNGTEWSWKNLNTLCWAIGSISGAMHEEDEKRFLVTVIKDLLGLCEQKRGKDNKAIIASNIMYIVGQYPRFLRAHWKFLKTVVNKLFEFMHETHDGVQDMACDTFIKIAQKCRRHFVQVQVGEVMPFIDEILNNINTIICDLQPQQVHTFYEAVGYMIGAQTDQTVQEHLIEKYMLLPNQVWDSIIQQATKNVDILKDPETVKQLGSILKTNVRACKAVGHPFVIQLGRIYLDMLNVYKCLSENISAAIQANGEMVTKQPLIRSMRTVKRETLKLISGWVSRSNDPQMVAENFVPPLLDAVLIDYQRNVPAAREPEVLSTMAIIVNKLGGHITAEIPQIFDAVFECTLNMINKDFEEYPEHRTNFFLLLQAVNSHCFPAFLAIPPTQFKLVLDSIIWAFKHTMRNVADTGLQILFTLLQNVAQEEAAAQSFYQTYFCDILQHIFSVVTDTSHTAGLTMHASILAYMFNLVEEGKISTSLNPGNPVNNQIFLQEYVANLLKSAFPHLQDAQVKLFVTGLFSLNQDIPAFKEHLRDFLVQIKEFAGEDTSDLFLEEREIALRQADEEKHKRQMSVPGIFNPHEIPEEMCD
UniProt P20700: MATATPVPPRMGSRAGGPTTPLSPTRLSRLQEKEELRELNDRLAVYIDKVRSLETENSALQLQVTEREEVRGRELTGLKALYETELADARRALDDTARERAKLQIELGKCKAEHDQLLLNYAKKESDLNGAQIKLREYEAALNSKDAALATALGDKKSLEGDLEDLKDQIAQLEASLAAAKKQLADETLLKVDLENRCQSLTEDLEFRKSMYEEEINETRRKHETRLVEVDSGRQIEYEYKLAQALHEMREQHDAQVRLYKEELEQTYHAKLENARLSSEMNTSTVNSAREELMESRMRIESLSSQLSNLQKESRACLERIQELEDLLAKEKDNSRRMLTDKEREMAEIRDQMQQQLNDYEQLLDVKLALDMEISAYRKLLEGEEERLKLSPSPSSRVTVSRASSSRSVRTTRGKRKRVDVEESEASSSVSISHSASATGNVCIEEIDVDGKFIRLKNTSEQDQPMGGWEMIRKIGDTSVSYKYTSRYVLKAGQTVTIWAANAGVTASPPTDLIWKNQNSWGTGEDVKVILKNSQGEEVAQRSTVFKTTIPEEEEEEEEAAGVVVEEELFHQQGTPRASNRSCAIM

Key:
MBP-45-532-Jacob (rat) = molecular target: T1, MBP-45-532-Jacob (rat) (UniProt Q9EPI6); experiment: pull-down; amylose-MBP-45-532-Jacob incubated with HEK293T cell extract expressing CRM1 overnight at 4 °C; Western blot; only the target purified
T1 sequence: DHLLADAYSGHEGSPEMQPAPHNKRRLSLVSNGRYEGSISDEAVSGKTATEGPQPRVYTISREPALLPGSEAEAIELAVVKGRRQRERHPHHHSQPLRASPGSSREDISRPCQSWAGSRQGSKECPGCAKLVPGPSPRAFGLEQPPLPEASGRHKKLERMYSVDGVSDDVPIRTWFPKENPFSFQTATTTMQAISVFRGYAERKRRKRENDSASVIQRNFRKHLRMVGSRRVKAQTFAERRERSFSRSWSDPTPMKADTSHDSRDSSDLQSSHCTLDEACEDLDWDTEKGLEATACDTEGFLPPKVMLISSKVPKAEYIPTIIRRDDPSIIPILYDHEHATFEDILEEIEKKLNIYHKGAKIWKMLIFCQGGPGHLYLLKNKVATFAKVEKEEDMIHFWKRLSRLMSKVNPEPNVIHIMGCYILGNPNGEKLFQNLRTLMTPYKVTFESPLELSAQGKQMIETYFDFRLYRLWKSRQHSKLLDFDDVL

WT-Jacob-Myc (rat) = molecular target: T2, WT-Jacob-Myc (rat) (UniProt Q9EPI6); experiment: co-IP; HEK293T cells co-transfected with WT-Jacob-Myc and TagRFP-LaminB1; lysis in RIPA buffer (50 mM Tris-HCl pH 7.4, 150 mM NaCl, 1% Triton X-100, 0.1% SDS); anti-Myc antibody-coated magnetic beads; Western blot
T2 sequence: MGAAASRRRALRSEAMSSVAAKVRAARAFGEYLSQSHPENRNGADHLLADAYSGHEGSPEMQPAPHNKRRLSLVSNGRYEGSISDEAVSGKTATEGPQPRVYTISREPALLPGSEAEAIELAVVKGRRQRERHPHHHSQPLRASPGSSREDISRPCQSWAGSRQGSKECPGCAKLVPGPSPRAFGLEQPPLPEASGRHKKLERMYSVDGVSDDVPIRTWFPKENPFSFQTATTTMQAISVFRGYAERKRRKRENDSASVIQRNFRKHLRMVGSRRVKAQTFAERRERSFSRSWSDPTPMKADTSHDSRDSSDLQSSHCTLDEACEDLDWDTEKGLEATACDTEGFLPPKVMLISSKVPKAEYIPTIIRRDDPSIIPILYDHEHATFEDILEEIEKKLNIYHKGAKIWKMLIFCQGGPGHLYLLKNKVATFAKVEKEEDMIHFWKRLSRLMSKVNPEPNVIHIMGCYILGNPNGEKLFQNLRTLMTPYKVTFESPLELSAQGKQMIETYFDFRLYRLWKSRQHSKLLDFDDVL

[1] = molecular target: T3, MBP-45-532-Jacob-L476A (rat) (UniProt Q9EPI6); experiment: pull-down; amylose-MBP matrix alone or coupled with MBP-Jacob proteins, washed in 20 mM Tris pH 7.5, 1 mM DTT, 3 mM EDTA, 100 mM NaCl, 0.3% TritonX-100; incubated with 20 μg of untagged LaminB1 or untagged CRM1 overnight at 4 °C; Western blot; both purified
T3 sequence: T1 sequence with L432A

[2] = molecular target: T4, Jacob (endogenous) (rat (endogenous in hippocampal primary neurons)) (UniProt Q9EPI6); experiment: proximity ligation; Duolink PLA with anti-Jacob and anti-LaminB1 antibodies in fixed rat hippocampal primary neurons; confocal and STED imaging
T4 sequence: T2 sequence

Molecule: CRM1 in HEK293T cell extract (from UniProt O14980 1-1071)
- binding (MBP-45-532-Jacob (rat)): binds

Molecule: mTagRFP-hLaminB1 (from UniProt P20700 1-586)
- binding (WT-Jacob-Myc (rat)): binds

Molecule: untagged-CRM1 (from UniProt O14980 1-1071)
- binding [1]: no binding (tested: 20 μg of untagged CRM1)

B1: LaminB1 (endogenous) (protein, UniProt P70615 1-587)
chain: MATATPVQQRAGSRASAPATPFSPTRLSRLQEKEELRELNDRLAVYIDKVRSLETENSALQLQVTEREEVRGRELTGLKALYETELADARRALDDTARERAKLQIELGKFKAEHDQLLLNYAKKESDLSGAQIKLREYEAALNSKDAALATALGDKKSLEGDLEDLKDQIAQLEASLSAAKKQLADETLLKVDLENRCQSLTEDLEFRKNMYEEEINETRRKHETRLVEVDSGRQIEYEYKLAQALHEMREQHDAQVRLYKEELEQTYHAKLENARLSSEMNTSTVNSARGGMMESRMRIESLSSQLSNLQKDSRACLERIQELEDMLAKERDNSRRMLSDKEREMAEIRDQMQQQLNDYEQLLDVKLALDMEISAYRKLLEGEEERLKLSPSPSSRVTVSRASSSRSVRTTRGKRKRVDVEESEASSSVSISHSASATGNVCIEEIDVDGKFIRLKNTSEQDQPMGGWEMIRKIGDTSVSYKYTSRYVLKAGQTVTVWAANAGVTASPPTDLIWKNQNSWGTGEDVKVVLKNSQGEEVAQRSTVFKTTIPEEEEEEEEEPIGVPLEEERFHQQGTPRASNKSCAIM
- binding [2]: binds
